Laboratory results: the supplement of paper PMC6143611
Where a name gives a salt, the structure may show the parent alone. ± gives the uncertainty stated by the source. The list shows a part of the results. Part of the spread comes from offsets between plates or batches.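 Larvae carried a heat-shock-induced fluorescent stripe in rod outer segments, set at 6 dpf; the shedding distance runs from this stripe to the outer segment tip, measured in confocal stacks, about three fish per compound. The controls got 0.2% DMSO vehicle, and the paper flagged compounds with at least a 20% change against the same-week control and p < 0.001 (Dunnett test on mixed-effects models).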

System: Danio rerio larva rod photoreceptor outer segment
Assay: rod outer segment growth distance Dg, difference from same-week DMSO control mean; higher = more outer segment growth
Settings: 20 µM; treatment time: 4 days (6-10 dpf)

SMILES | rod outer segment growth distance Dg [um]
Cc1cc(C)c(CNC(=O)c2cc(-c3ccc(CN4CCOCC4)cc3)cc3c2cnn3C2CCCC2)c(=O)[nH]1 | 0.11 ± 0.15
CC(C)NCC(O)COc1ccc(COCCOC(C)C)cc1 (configuration not stated) [Bisoprolol fumarate] | 0 ± 0.2
Nc1ncn([C@@H]2O[C@H](CO)[C@@H](O)[C@H]2O)c(=O)n1 [Azacitidine] | -0.65 ± 0.23
CC(C)(C)c1cc(C(C)(C)C)c(NC(=O)c2c[nH]c3ccccc3c2=O)cc1O [Ivacaftor (VX-770)] | -2.18 ± 0.34

System: Danio rerio larva rod photoreceptor outer segment
Assay: rod outer segment shedding distance Ds, difference from same-week DMSO control mean; higher = less outer segment shedding
Settings: 20 µM; treatment time: 4 days (6-10 dpf)

SMILES | rod outer segment shedding distance Ds [um]
CN[C@@H](C)C(=O)N[C@H](C(=O)N1CCC[C@H]1C(=O)Nc1snnc1-c1ccccc1)C1CCCCC1 | 0.1 ± 0.13
O=C1NC(=O)C(c2ccccc2)(c2ccccc2)N1 [Phenytoin] | -0.58 ± 0.37
CC(C)CN(C[C@@H](O)[C@H](Cc1ccccc1)NC(=O)O[C@H]1CCOC1)S(=O)(=O)c1ccc(N)cc1 [Amprenavir] | -0.44 ± 0.24
CN(Cc1cc(Br)cc(Br)c1N)C1CCCCC1 [Bromhexine HCl] | -1.65 ± 0.75
C[C@]12CCC(=O)C=C1CC[C@@H]1[C@@H]2[C@@H](O)C[C@@]2(C)[C@H]1CC[C@]2(O)C(=O)CO [Hydrocortisone] | 0.27 ± 0.15
CCC(=O)O[C@]1(C(=O)SCF)[C@H](C)C[C@H]2[C@@H]3C[C@H](F)C4=CC(=O)C=C[C@]4(C)[C@@]3(F)[C@@H](O)C[C@@]21C [Fluticasone propionate] | -0.17 ± 0.26
CNC(=O)c1ccc(-c2cnc3ncc(Cc4ccc5ncccc5c4)n3n2)cc1F | -0.35 ± 0.12
CCCCc1nc(Cl)c(CO)n1Cc1ccc(-c2ccccc2-c2nnn[nH]2)cc1 [Losartan Potassium (DuP 753)] | 0.15 ± 0.24
C[C@@H]1CC(=O)NN=C1c1ccc(NN=C(C#N)C#N)cc1 [Levosimendan] | 0.63 ± 0.27
O=C(CCc1ccc(O)cc1)c1c(O)cc(O)cc1O[C@@H]1O[C@H](CO)[C@@H](O)[C@H](O)[C@H]1O [Phlorizin] | -4.37 ± 2
Cc1nc(NC(=O)N2CCC[C@H]2C(N)=O)sc1-c1csc(C(C)(C)C)n1 | -0.68 ± 0.13
C[C@@H]1C[C@H]2[C@@H]3CCC4=CC(=O)C=C[C@]4(C)[C@@]3(Cl)[C@@H](O)C[C@]2(C)[C@@]1(OC(=O)c1ccco1)C(=O)CCl [Mometasone furoate] | 0.83 ± 0.25
C#CCC(Cc1cnc2nc(N)nc(N)c2n1)c1ccc(C(=O)N[C@@H](CCC(=O)O)C(=O)O)cc1 (some centres not stated) [Pralatrexate] | -0.34 ± 0.19
CN1CC(=O)N2[C@H](c3ccc4c(c3)OCO4)c3[nH]c4ccccc4c3C[C@@H]2C1=O [Tadalafil] | 0.35 ± 0.17
COc1ccc([C@H]2CNC(=O)C2)cc1OC1CCCC1 [S- (+)-Rolipram] | -1.43 ± 0.23
COc1ccc(-c2ccc3c(N4CCOCC4)nc(N4C[C@@H](C)O[C@@H](C)C4)nc3n2)cc1CO | 0.08 ± 0.21
COc1ccc2c(c1)c(C1=C(c3c[nH]c4ccccc34)C(=O)NC1=O)cn2CCCN(C)C | -0.12 ± 0.15
O=C(O)C(=O)O.[NH-][C@@H]1CCCC[C@H]1[NH-].[Pt+2] [Oxaliplatin] | -0.75 ± 0.21
O=C(O)C(Cc1c[nH]c2ccccc12)N1C(=O)c2ccccc2C1=O (configuration not stated) | 0.08 ± 0.14

SMILES | rod outer segment shedding distance Ds [um]
CCOc1nc2cccc(C(=O)O)c2n1Cc1ccc(-c2ccccc2-c2noc(=O)[nH]2)cc1 [Azilsartan] | -0.19 ± 0.13
CC1(C)CC(=O)c2c(C(F)(F)F)nn(-c3ccc(C(N)=O)c(N[C@H]4CC[C@H](O)CC4)c3)c2C1 | 0.03 ± 0.12
CC(C)(OCc1nn(Cc2ccccc2)c2ccccc12)C(=O)O [Bindarit] | 0.11 ± 0.17
CC(C)(C)[N+]([O-])=Cc1ccc(S(=O)(=O)O)cc1S(=O)(=O)O | 0.6 ± 0.2
CCn1cc(-c2ccnc3[nH]c(-c4cccc(CN(C)C)c4)cc23)c(-c2ccc(NC(=O)N(C)C)cc2)n1 | -0.8 ± 0.11
CC1(C)CNc2cc(NC(=O)c3cccnc3NCc3ccncc3)ccc21 [Motesanib Diphosphate (AMG-706)] | -0.31 ± 0.22
CC(=O)OCC[N+](C)(C)C [Acetylcholine Chloride] | -0.23 ± 0.17
NC(=O)c1cnccn1 [Pyrazinamide] | -0.26 ± 0.18
Nc1ccn([C@@H]2O[C@H](CO)[C@@H](O)[C@@H]2O)c(=O)n1 [Cytarabine] | -0.26 ± 0.2
CCn1c(=O)c2c(nc(/C=C/c3ccc(OC)c(OC)c3)n2C)n(CC)c1=O [Istradefylline] | 0.06 ± 0.13
Cc1[nH]c(/C=C2\C(=O)Nc3ccc(S(=O)(=O)N(C)c4cccc(Cl)c4)cc32)c(C)c1C(=O)N1CCN(C)CC1 | 0.39 ± 0.23
Cc1cc(NC(=O)Nc2ccc(N(C)C)cc2)c2cc(F)cc(F)c2n1 | 0.35 ± 0.15
CCCCC[C@H](O)/C=C/[C@H]1[C@H](O)CC(=O)[C@@H]1CCCCCCC(=O)O [Alprostadil] | 0.88 ± 0.21
CN1C(C(=O)Nc2ccccn2)=C(O)c2ccccc2S1(=O)=O [Piroxicam] | 0.22 ± 0.17
CCCCCCCCCCC[C@@H](C[C@@H]1OC(=O)[C@H]1CCCCCC)OC(=O)[C@H](CC(C)C)NC=O [Orlistat] | -0.15 ± 0.17
Cc1cc(C)c(CNC(=O)c2cc(-c3ccc(CN4CCOCC4)cc3)cc3c2cnn3C2CCCC2)c(=O)[nH]1 | -0.51 ± 0.14
CC(C)NCC(O)COc1ccc(COCCOC(C)C)cc1 (configuration not stated) [Bisoprolol fumarate] | -2.05 ± 0.27
Nc1ncn([C@@H]2O[C@H](CO)[C@@H](O)[C@H]2O)c(=O)n1 [Azacitidine] | 0.08 ± 0.14
CC(C)(C)c1cc(C(C)(C)C)c(NC(=O)c2c[nH]c3ccccc3c2=O)cc1O [Ivacaftor (VX-770)] | -0.17 ± 0.21

Looked up above:
Entry for Nc1ccn([C@@H]2O[C@H](CO)[C@@H](O)[C@@H]2O)c(=O)n1 [Cytarabine] under rod outer segment shedding distance Ds [um]: -0.26 ± 0.2
Entry for CCn1cc(-c2ccnc3[nH]c(-c4cccc(CN(C)C)c4)cc23)c(-c2ccc(NC(=O)N(C)C)cc2)n1 under rod outer segment shedding distance Ds [um]: -0.8 ± 0.11
